Results are given in words; binding and its absence hold for the method and conditions named. Some binding calls cover weakened binding; strength is not graded here.

The target in this experiment is prosaposin (rat (endogenous in epididymal fluid of Sprague-Dawley rats)) (UniProt P10960). The experiment is described as follows: SDS-PAGE under non-reducing conditions with immunoblot; epididymal fluid proteins of control, castrated and castrated plus testosterone rats in Laemmli buffer without dithiothreitol, 7% gels, blot with anti-prosaposin. A general note: In western blotting, separated proteins are transferred to a membrane and probed.

B1: prosaposin (protein, UniProt P10960 17-554)
chain: SPVQDPKICSGGSAVVCRDVKTAVDCRAVKHCQQMVWSKPTAKSLPCDICKTVVTEAGNLLKDNATEEEILHYLEKTCAWIHDSSLSASCKEVVDSYLPVILDMIKGEMSNPGEVCSALNLCQSLQEYLAEQNQRQLESNKIPEVDLARVVAPFMSNIPLLLYPQDRPRSQPQPKANEDVCQDCMKLVTDIQTAVRTNSSFVQGLVDHVKEDCDRLGPGVSDICKNYVDQYSEVAVQMMMHMQPKEICVMVGFCDEVKRVPMRTLVPATEAIKNILPALELTDPYEQDVIQAQNVIFCQVCQLVMRKLSELIINNATEELLIKGLSKACSLLPAPASTKCQEVLVTFGPSLLDVLMHEVNPNFLCGVISLCSANPNLVGTLEQPAAAIVSALPKEPAPPKQPEEPKQSALRAHVPPQKNGGFCEVCKKLVIYLEHNLEKNSTKEEILAALEKGCSFLPDPYQKQCDEFVAEYEPLLLEILVEVMDPSFVCSKIGVCPSAYKLLLGTEKCVWGPGYWCQNSETAARCNAVDHCKRHVWN
Take B1: the binding entry is “binds”.

(Values after paper PMC8084160.)
